At least one compound was matched to its structure with a doubt left.
What was measured:
[1] = Pharmacokinetics after oral administration to rats; type: in vivo, rat; conditions: 10 mg/kg P.O.
IL-23R in human DB cells = test: Schild analysis, Human DB Cell (pSTAT3); type: cell-based; conditions: 0.3-100 nM peptide
[2] = test system: distal colon tissue of TNBS-exposed rats; test: Biomarkers in distal colon of TNBS rats (ELISA); type: in vivo, rat; conditions: vs vehicle treated controls
Procedure: Levels of inflammatory markers were examined in the colons. The distal colon tissue samples, designated for protein expression analysis, were flash frozen after collection. For protein extraction, the samples were thawed, weighed and homogenized in the extraction buffer (PBS pH 7.2 supplemented with Protease Inhibitors, 3× volume:weight). The homogenates were centrifuged at 13 krpm at 4° C. for 15 minutes, a total of two times to remove the debris. The supernatants were saved in multiple aliquots in −80° C. and subsequently used for protein expression analysis on ELISA. The total protein in each sample was quantified using BCA assay.

[3] = Stability in simulated gastric fluid (SGF); type: in vitro ADME
rat splenocytes = test: Rat Splenocyte Assay (IL-17A); type: cell-based; conditions: IL-17A produced by activated splenocytes exposed to IL-23; read-out: Cell assay (nM) Rat (Spleen), IC50
Procedure: A new assay developed was the rat splenocyte assay.
Briefly, splenocytes freshly isolated from rat were seeded in 96-well tissue culture plates in complete medium containing IL-10. […] Changes in IL-17A levels in the supernatants were detected using an ELISA.

[4] = Stability in human intestinal fluid; type: in vitro ADME
[5] = test system: TNBS-induced acute colitis, Sprague-Dawley rats; test: TNBS induced colitis in rat; type: in vivo
Cyno IL-23R = conditions: IL-23/IL-23R competitive binding, read-out: ELISA (nM) Cyno, IC50
[6] = Stability in simulated intestinal fluid (SIF); type: in vitro ADME

## CC(=O)N[C@@H](CCCNC(=N)N)C(=O)N[C@@H]1CCSC[C@@H](C(=O)N[C@@H](Cc2ccc(OCCN)cc2)C(=O)N[C@@H](Cc2ccc3ccccc3c2)C(=O)NC2(C(=O)N[C@@H](CCC(=O)O)C(=O)N[C@@H](CC(N)=O)C(=O)N[C@@H](CC(N)=O)C(N)=O)CCOCC2)NC(=O)[C@H](CCC(N)=O)NC(=O)[C@H](Cc2c[nH]c3ccccc23)NC(=O)[C@H]([C@@H](C)O)NC(=O)[C@@H](CCC(N)=O)NC1=O (stereo in doubt) [SEQ ID NO: 993, Ac-[D-Arg]-Cyclo-[[Abu]-QTWOC]-[Phe(4-2ae)]-[2-Nal]-[THP]-ENN-NH2]
[1]
  time with detectable levels in small intestine: at least six hours
  time with detectable levels in the Peyer's Patch: at least six hours
  time with detectable levels in the colon: at least 8 hours
[1]; 24 hours
  level in feces, % of the total administered dose: greater than 5%
[1]; between 0 and 24 hours
  levels in rat plasma: No detectable levels
IL-23R in human DB cells
  Schild slope: 1.068
[2]
  IL-1beta level in colon: reduced
  IL-6 level in colon: reduced
  IL-17A level in colon: reduced
  IL-22 level in colon: reduced
  MPO level in colon: reduced
[3]
  Stability (t1/2, hr) SGF: 6 h
Rat splenocytes
  IC50: 18.3 nM
[4]
  Stability (t1/2, hr) HIF: 24 h
[5]; Example 13, vs vehicle
  Histopathological scores: significantly reduced
  colon macroscopic scores: significantly reduced
[5]; Example 13, total 42 mg/kg per day oral
  weight loss: prevented
Cyno IL-23R
  IC50: 2 nM
[6]
  Stability (t1/2, hr) SIF: 12 h

Reference: patent US10787490B2, “Peptide inhibitors of interleukin-23 receptor and their use to treat inflammatory diseases” (Protagonist Therapeutics, Inc., priority 2015, dated 2020)
